Laboratory results published in patent publication US20170128480A1, “Cardiac Glycosides for the Treatment of Hypercholesterolemia” (priority 2015, published 2017).

Test system: human ApoB-100
Assay: Drug treatment of humanized FRGN avatar mice, serum human ApoB-100 and albumin by ELISA
Assay type: in vivo
Conditions: same animals, 48-hour period
Experimental: Prior to any drug or vehicle treatment, the ratio of ApoB-100 to albumin is approximately 30% higher in the serum of avatars repopulated with hepatocytes from donor A compared to donor B (p=0.032) (FIG. 8A). Human ApoB-100 and albumin is then measured before and after treatment with DMSO (vehicle), Digoxin or Proscillaridin, over a 48-hour period of time (FIG. 8C). […] The concentration of human albumin is unaffected in the serum of the same animals (FIG. 8B).
A sandwich ELISA to detect human albumin in tissue culture supernatants and mouse sera uses a 1:100 dilution of a capture human albumin coating antibody (Bethyl laboratories, A80-129A) and a 1:85,000 dilution of a Horseradish Peroxidase (HRP) conjugated human albumin detection antibody (Bethyl laboratories, A80-129P). Bound antibody is detected using 3,3′,5,5′-tetramethylbenzidine (TMB) and the concentration of albumin in each sample is determined by comparing to a standard curve (Bethyl laboratories, RS10-110). Human lipidated apoB-100 is detected using a commercial sandwich ELISA (product code: 3715-1H-6; MabTech, Inc.) and detected using TMB. The concentration of apoB-100 is determined by comparing to a standard curve using lipidated apoB-100 supplied by the manufacturer.
Fah^−/−Rag2^−/−IL2 gr^−/−NOD (FRGN) mice are generated and supplied by Dr. Markus Grompe. […]

SMILES	concentration of human albumin in serum
CC1O[C@@H](O[C@H]2C(O)C[C@H](O[C@H]3C(O)C[C@H](OC4CC[C@@]5(C)[C@H](CC[C@@H]6[C@@H]5C[C@@H](O)[C@]5(C)[C@@H](C7=CC(=O)OC7)CC[C@]65O)C4)OC3C)OC2C)CC(O)[C@@H]1O (some centres unmarked) [Digoxin]	unaffected
C[C@@H]1OC(O[C@@H]2C=C3CC[C@@H]4[C@H](CC[C@]5(C)[C@@H](c6ccc(=O)oc6)CC[C@]45O)[C@@]3(C)CC2)[C@H](O)C(O)C1O (some centres unmarked) [Proscillaridin]	unaffected
